Sequences of proteins named here, by UniProt entry; tags and fusion partners are left off. Residues count along the entry.
UniProt P80188, 21-198: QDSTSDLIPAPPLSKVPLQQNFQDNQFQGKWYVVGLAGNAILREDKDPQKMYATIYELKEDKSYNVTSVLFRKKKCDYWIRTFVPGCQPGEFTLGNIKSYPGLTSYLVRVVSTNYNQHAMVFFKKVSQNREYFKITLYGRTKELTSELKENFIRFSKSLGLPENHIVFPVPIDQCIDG

In paper PMC6582607:

Biological target: NGAL (neutrophil gelatinase-associated lipocalin) (UniProt P80188)
Assay: magnetic bead pull-down, qPCR
Conditions: 200 nM aptamer; room temperature, 1 h, NGAL-coated magnetic beads (about 0.20 ug NGAL per uL beads); single-stranded DNA

Does “AGCAGCACAGAGGTCAGATGCAACGGGTATAACCAGATGATTTGGCGCCACGTAACCTATGCGTGCTACCGTGAA [NA21]” bind?
Result: binds more weakly

Does “AGCAGCACAGAGGTCAGATGTGCTGGAATCAACACGATCGCATCCCGGATGGGCTCCTATGCGTGCTACCGTGAA [NA10]” bind?
Result: binds more weakly

The comparison behind a weaker result is the experiment's own reference, which may not be listed here.
